The match of structure and compound is tentative.
Key:
Kuramochi cells RB-KO = assay: IncuCyte Kuramochi cell proliferation assay, RB-KO; settings: read-out: IncuCyte Kuramochi RB-KO: IC50 - Batch Mean, 72 hours, cell count
Experimental: (§1) IncuCyte® assay was used to measure the effect of disclosed compounds on cell proliferation. Fluorescent microscopy images of cells were taken immediately after compound treatment and 72 hours later. Image analysis software was used to obtain cell counts as a function of compound concentration. Kuramochi cells labeled with mApple-H2B were seeded on 384-well assay-ready plates. Plates were placed in an IncuCyte® (Sartorius) and scanned at 0 and 72 hours. IncuCyte® software was used to count the number of fluorescent nuclei in each well. The fold change in cell count from 0 to 72 hours in wells treated with increasing compounds concentrations (10 pts, 1/2 log dilution, 20 µM top concentration) was normalized to DMSO control wells. The normalized cell counts were fit with dose response curves and a GI50 was calculated.

Kuramochi cells RB-WT = assay: IncuCyte Kuramochi cell proliferation assay, RB-WT; settings: read-out: IncuCyte - Kuramochi RB-WT: IC50, 72 hours, cell count
Experimental: as §1

CDK2/Cyclin E1 = CDK2/Cyclin E1 (Homo sapiens, UniProt P24941); assay: ADP-Glo Luminescent Kinase Assay (CDK2/E1-37C); settings: read-out: ADPGLO (CDK2/E1-37C): IC50; 0.18 nM CDK2/Cyclin E1, 100 μM ATP, Histone H1, 37° C.
Experimental: Inhibition of CDK2/Cyclin E1 activity by the presence of small molecules was evaluated using ADP-Glo Luminescent Kinase Assay (Promega). Activated CDK2/Cyclin E1 was incubated with its substrate Histone H1 (SignalChem H10-54N) in the kinase reaction buffer (100 μM ATP, 50 mM HEPES pH 7.5, 10 mM MgCl2, 1 mM EDTA, 2 mM DTT, 0.01% Brij35, 0.5 mg/mL BSA). Luminescence was recorded with an Envision plate reader (PerkinElmer).
Dose titrations of inhibitors in 100% DMSO were combined with 0.36 nM CDK2/Cyclin E1 in reaction buffer. The mixtures were incubated for 60 minutes at 37° C. before the addition of ATP and Histone H1 substrate to initiate the kinase reaction. The final conditions were 0.18 nM CDK2/Cyclin E1, 100 μM ATP, and […] Histone H1. The reactions were incubated at 37° C. for 90 minutes before being stopped with the addition of ADP-Glo reagent. This mixture was incubated at room temperature for 60 minutes before Kinase Detection Solution is added to generate luminescence. The stopped reactions were analyzed on an Envision plate reader. The conversion ratios were normalized to yield % activity, plotted against compound concentration, and fit to a four-parameter equation to determine the IC50 for each compound.

Work on `CC1(C)C[C@@H]1C(=O)N1CC2(CN(C(=O)c3cnn(Cc4ccc(F)cc4OC(F)F)c3)C[C@H]2COCc2cccc(C3CCC(F)(F)CC3)c2C(=O)O)C1` yielded an IC50 (Kuramochi cells RB-KO) greater than 10 µM, an IC50 (Kuramochi cells RB-WT) greater than 10 µM and an IC50 (CDK2/Cyclin E1) of less than 0.5 µM.
